Patent US20260146089A1
Where a chain is given by its changes, count along the chain named. No constants are given. Whether binding was seen depends on the method and setting. Some binding calls cover weakened binding; strength is not graded here. For part of these data: Where a sequence is shown, tags or fusion partners need not be part of it.

Protein sequences, listed by entry. Tags and fused reporters are not part of them. Lines headed by an entry give the natural chain unless they say otherwise; changes in a name come on top. Residues count along the entry.
UniProt P20138, residues 18-364: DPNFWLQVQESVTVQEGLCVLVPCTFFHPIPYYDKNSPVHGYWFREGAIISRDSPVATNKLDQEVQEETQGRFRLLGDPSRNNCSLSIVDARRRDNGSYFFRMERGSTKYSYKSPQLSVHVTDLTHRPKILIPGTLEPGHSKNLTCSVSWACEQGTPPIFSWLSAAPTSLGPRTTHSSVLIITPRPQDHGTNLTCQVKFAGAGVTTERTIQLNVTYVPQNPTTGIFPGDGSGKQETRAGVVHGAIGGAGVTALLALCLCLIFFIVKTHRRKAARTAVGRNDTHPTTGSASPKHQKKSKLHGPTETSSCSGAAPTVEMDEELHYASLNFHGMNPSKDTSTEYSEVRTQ
UniProt P07766: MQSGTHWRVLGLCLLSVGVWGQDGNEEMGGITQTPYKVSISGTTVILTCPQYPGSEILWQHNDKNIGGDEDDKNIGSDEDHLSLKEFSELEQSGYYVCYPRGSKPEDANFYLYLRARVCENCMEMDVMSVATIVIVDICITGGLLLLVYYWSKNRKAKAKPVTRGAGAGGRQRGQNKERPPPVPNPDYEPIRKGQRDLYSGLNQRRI

B1: multispecific molecule ("1+1" format) with the anti-CD3 07B09 antibody and the anti-CD33 antibody 3P14 (bispecific antibody, V domains shown)
VH 1: EVQLVESGGGLVQPGGSLRLSCAASGFTFSSYWMTWVRQAPGKGLEWVANMRKDGSEKYYVDSVKGRFTISRDNAKNSLYLHMNSLRAEDTAVYYCARERSTGYFDYWGQGTLVIVSS
VL 1: DIQMTQSPSTLSASVGDRVTITCRASQRISTWLAWYQQKAGKAPKLLIYKASSLESGVPSRFSGSGSGTEFTLTIRSLEPDDFATYYCQQYISYTWTFGQGTKVEIK
VH 2: EVQLLESGGGLVQPGGSLRLSCAASGFTFSTYAMSWVRQAPGKGLEWVSAISGRGGSTYYTDSVKGRFTISRDNSKNTVSLQMNSLRAEDTAVYYCAGRGDYYYYYGMDVWGQGTTVTVSA
VL 2: DIVMTQSPLSSPVTLGQPASFSCRSSQSLVYSDGNTYLSWLQQRPGQPPRLLIYKISNRFSGVPDRFSGSGAGTDFTLKISRVEAEDVGVYYCMQSTQFPHTFGQGTKLEIK
B2: multispecific molecule ("1+1" format) with the anti-CD3 12C08 antibody and the anti-CD33 antibody 3P14 (bispecific antibody, V domains shown)
VH 1: EEQLVESGGGLVQPGGSLRFSCEVSGFTFRSYWMSWVRQAPGKGLEWVANIKEDGSEKYYVDSVKGRFTISRDNAKNSLYLQMNSLRAEDTAVYYCARERREGYFDQWGQGTLVTVSS
VL 1: B1 VL 1 with S14F, R28S, S30G, T31S, A40P, K45D, R76S, E79Q, I92K, T95S
VH 2: B1 VH 2
VL 2: B1 VL 2
B3: 12C08 scFv-Fc bivalent fusion molecule (Fc fusion)
VH: B2 VH 1
VL: B1 VL 1 with S14F, R28S, S30G, T31S, A40P, K45D, R76S, E79Q, I92K, T95S
B4: 07B09 scFv-Fc bivalent fusion molecule (Fc fusion)
VH: B1 VH 1
VL: B1 VL 1

Legend:
[1] = biological target: CD33 on U937 cells (UniProt P20138); test: FACS on U937 cells
[2] = biological target: human CD3ε on the cell surface (Jurkat cells, Th1 cells) (human) (UniProt P07766); test: FACS on Jurkat cells
[3] = biological target: human CD3ε on the cell surface (Jurkat cells, Th1 cells) (human) (UniProt P07766); test: FACS on Jurkat cells, scFv-Fc format

| Binder | binding [1] | binding [2] | binding [3] |
| --- | --- | --- | --- |
| B1 | binds | binds | – |
| B2 | binds | binds | – |
| B3 | – | – | binds |
| B4 | – | – | binds |
